The list shows a part of the results.
Tests used:
Test in all cases: log2 fold change, soluble protein after heating vs DMSO (PISA); higher = thermal stabilisation; K562 cells, 10 uM, 30 min; active = over 0.2 and 3.5 SD of the protein, either way, in both replicates (recomputed)
[1] = compound: Cc1ccc(NC(=O)c2ccc(CN3CC[C@H](N(C)C)C3)c(C(F)(F)F)c2)cc1Nc1nccc(-c2cncnc2)n1 [bafetinib]
Summary of the method: (§1)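 Values are thermal stability changes relative to control samples and are taken from duplicates. They are stated as log2 fold changes. Before quantification by TMTpro 16plex LC-MS/MS with equalised channel sums, K562 cells at 2×10^6 cells/mL were treated with 10 μM compound for 30 min, heated in aliquots for 3 min across 48°C-58°C, pooled, extracted in PBS with 0.5% NP-40 at 4°C, and centrifuged at 21,000xg for 90 min to give the soluble supernatant.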

The chains behind the UniProt entries cited, without tags or fusion partners. Where a name states a change or a piece, a line headed by the entry shows the natural chain unless it says otherwise.
UniProt Q96KE9: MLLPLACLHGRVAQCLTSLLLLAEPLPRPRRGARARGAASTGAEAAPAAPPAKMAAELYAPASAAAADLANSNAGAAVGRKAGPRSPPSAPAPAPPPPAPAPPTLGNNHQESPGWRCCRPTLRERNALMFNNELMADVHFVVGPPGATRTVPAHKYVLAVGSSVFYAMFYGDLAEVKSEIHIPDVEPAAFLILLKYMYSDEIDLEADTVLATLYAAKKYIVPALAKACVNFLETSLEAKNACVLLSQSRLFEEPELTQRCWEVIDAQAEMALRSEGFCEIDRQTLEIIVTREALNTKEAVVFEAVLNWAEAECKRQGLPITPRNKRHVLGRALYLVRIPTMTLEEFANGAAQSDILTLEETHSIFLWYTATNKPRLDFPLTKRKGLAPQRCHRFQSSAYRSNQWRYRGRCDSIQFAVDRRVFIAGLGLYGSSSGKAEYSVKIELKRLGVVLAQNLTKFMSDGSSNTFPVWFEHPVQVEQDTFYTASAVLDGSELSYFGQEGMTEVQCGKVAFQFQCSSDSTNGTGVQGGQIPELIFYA
UniProt Q8N1A6: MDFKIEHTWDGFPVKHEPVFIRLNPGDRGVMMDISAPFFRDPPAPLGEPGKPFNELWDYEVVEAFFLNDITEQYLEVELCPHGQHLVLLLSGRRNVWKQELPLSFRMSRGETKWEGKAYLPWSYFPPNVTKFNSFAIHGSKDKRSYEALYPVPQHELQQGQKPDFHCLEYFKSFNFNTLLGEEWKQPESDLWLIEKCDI
UniProt P27797, whole entry, looked up: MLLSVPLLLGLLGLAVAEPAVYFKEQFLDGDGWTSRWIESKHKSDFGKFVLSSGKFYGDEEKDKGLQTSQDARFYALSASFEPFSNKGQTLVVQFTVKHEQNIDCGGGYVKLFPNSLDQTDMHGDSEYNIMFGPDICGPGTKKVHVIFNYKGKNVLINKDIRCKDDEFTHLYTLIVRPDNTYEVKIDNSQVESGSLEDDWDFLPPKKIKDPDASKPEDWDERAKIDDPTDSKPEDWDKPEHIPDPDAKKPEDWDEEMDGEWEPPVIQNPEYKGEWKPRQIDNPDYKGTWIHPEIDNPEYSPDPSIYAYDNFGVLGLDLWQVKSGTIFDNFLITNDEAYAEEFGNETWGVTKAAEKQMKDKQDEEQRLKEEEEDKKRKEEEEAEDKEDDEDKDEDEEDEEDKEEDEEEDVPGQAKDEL
UniProt A6NDU8: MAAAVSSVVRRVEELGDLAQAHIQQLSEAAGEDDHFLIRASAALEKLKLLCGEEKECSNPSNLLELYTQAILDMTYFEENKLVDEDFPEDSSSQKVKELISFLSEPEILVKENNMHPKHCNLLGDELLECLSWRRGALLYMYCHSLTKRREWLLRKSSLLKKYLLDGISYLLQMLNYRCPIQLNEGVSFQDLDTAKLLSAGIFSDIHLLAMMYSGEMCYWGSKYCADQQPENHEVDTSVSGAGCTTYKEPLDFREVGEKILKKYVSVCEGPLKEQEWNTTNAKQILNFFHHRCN
UniProt Q9UFG5: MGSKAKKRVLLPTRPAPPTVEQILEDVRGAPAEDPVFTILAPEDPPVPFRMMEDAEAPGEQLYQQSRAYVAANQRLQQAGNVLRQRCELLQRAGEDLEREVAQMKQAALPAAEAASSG
UniProt Q9Y6E2: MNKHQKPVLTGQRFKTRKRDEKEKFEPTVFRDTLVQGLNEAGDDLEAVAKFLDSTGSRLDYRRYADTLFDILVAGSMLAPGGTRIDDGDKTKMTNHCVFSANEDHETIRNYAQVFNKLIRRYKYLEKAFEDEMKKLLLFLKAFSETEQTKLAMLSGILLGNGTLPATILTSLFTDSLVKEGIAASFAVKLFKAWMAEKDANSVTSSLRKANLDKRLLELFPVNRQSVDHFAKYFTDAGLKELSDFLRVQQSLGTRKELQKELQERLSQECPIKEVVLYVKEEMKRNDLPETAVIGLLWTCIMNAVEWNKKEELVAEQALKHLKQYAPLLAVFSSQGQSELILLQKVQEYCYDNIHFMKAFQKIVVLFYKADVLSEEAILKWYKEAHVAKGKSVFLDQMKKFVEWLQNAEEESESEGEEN
UniProt Q8N5I9: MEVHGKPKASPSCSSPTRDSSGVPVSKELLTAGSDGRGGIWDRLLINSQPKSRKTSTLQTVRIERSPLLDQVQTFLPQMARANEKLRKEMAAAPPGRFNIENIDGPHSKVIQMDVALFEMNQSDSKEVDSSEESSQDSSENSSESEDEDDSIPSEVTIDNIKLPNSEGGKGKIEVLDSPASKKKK
UniProt P00915: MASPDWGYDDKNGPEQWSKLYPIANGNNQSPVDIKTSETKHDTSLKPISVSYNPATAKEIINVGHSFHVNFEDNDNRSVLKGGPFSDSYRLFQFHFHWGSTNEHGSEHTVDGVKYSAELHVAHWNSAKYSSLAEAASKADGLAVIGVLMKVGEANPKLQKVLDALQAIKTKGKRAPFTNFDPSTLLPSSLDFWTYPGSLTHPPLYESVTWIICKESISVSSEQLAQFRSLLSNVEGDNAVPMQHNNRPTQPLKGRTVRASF
UniProt P04632: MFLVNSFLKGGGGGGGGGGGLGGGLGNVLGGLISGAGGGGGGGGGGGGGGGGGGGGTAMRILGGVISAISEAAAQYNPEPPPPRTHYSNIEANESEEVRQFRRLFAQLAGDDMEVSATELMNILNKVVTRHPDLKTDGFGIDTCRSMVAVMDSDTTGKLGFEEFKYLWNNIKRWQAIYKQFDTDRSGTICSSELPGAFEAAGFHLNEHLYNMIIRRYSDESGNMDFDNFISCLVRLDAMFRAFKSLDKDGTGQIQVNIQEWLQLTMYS
UniProt Q01518, whole entry, looked up: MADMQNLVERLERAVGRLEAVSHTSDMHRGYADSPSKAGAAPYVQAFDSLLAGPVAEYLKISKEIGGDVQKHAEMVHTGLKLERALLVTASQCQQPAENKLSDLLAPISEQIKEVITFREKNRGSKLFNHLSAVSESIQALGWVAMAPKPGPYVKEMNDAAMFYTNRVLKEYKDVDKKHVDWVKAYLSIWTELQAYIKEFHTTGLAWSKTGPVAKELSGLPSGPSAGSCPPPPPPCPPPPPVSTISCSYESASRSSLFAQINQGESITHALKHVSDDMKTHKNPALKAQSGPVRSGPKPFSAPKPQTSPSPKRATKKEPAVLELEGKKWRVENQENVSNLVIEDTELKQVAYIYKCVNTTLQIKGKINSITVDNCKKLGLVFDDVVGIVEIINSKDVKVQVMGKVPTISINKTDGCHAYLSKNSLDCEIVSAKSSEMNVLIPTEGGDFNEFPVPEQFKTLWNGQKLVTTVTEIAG
UniProt Q9HAS0: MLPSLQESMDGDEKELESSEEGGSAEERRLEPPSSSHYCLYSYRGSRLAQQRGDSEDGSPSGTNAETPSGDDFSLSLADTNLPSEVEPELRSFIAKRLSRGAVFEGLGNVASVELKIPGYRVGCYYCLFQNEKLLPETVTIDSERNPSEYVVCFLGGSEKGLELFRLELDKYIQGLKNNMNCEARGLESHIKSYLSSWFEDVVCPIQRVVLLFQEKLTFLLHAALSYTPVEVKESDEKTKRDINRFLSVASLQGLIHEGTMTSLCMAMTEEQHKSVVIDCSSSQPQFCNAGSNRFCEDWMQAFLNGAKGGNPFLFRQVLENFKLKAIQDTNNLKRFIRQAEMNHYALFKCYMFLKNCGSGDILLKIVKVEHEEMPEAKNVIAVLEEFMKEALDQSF
UniProt P01024, whole entry, looked up: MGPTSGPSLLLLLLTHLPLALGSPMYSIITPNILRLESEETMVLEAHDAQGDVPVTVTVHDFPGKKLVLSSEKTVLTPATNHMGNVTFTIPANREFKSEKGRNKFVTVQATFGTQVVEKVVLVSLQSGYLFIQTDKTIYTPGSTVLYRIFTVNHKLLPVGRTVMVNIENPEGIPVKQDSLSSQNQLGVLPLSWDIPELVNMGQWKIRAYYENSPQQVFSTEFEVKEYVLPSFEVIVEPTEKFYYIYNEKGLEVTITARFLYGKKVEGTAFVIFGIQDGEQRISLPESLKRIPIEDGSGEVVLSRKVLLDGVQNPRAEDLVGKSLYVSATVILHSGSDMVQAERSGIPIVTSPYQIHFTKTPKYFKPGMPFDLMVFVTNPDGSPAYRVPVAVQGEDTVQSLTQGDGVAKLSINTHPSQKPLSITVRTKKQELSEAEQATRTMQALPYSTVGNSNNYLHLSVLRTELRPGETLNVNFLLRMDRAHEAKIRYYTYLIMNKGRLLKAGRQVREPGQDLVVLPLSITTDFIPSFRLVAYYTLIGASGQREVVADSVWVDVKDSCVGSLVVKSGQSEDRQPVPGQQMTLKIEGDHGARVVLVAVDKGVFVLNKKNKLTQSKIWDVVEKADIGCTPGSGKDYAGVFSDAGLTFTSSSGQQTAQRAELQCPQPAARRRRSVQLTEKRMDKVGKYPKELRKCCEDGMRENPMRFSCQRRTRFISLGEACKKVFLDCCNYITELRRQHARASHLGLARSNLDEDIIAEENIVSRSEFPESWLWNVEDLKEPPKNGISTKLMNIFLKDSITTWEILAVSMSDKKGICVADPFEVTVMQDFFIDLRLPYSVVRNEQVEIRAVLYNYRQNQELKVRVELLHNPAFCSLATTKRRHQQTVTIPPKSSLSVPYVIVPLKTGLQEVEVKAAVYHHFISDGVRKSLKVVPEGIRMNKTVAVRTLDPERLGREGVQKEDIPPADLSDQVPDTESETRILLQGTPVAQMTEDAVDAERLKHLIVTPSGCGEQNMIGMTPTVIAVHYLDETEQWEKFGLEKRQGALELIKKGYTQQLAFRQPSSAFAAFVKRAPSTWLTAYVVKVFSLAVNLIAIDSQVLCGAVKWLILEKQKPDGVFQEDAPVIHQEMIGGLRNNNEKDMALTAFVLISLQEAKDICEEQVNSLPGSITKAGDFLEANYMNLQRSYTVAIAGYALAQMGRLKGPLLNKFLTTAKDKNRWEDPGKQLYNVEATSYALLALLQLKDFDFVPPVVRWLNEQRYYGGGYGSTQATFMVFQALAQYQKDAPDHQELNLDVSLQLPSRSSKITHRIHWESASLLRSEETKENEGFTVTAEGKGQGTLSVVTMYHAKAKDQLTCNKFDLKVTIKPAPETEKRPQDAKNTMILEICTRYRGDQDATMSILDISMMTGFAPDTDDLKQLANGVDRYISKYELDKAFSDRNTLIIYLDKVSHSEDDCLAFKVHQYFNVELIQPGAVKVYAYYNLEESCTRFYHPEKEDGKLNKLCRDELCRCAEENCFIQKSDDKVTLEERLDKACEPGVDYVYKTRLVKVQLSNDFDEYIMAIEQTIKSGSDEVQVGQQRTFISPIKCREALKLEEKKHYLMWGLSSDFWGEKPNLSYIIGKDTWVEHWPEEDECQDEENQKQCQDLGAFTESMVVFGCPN
UniProt Q8WUR7: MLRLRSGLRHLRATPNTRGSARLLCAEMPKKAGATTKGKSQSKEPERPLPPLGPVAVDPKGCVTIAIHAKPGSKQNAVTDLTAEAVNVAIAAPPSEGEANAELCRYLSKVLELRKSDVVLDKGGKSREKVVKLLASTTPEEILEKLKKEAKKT
UniProt Q5T6V5: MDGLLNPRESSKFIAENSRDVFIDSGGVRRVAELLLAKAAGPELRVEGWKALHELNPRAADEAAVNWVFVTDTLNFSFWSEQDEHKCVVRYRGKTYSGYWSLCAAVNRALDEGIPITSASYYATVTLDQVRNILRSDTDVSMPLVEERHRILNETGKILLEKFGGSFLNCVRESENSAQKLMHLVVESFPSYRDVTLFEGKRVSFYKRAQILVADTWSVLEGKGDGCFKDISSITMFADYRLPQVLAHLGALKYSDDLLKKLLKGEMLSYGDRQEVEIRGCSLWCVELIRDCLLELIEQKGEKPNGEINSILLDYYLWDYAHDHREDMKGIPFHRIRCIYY

[2] = compound: Cc1cccc(CC(=O)N2CCc3c2ccc(-c2cn(C)c4ncnc(N)c24)c3F)n1
Summary of the method: as §1

[3] = compound: Cc1cn(-c2cc(NC(=O)c3ccc(C)c(Nc4nccc(-c5cccnc5)n4)c3)cc(C(F)(F)F)c2)cn1 [nilotinib]
Summary of the method: as §1

[4] = compound: Cc1nc(Nc2n[nH]c3c2CN(C(=O)N[C@H](CN(C)C)c2ccccc2)C3(C)C)c2sccc2n1
Summary of the method: as §1

[5] = compound: Cc1nc(Nc2ncc(C(=O)Nc3c(C)cccc3Cl)s2)cc(N2CCN(CCO)CC2)n1 [dasatinib]
Summary of the method: as §1

[6] = compound: Cc1ncc(-c2ccnc(Nc3ccc(S(C)(=O)=O)cc3)n2)n1C(C)C
Summary of the method: as §1

[7] = compound: Cn1cc(-c2ccc3c(c2)CCN3C(=O)Cc2cccc(C(F)(F)F)c2)c2c(N)ncnc21
Summary of the method: as §1

[8] = compound: Cn1cc(-c2ccc3nnc(C(F)(F)c4ccc5ncccc5c4)n3n2)cn1
Summary of the method: as §1

[9] = compound: Cn1cncc1[C@@](N)(c1ccc(Cl)cc1)c1ccc2c(c1)c(-c1cccc(Cl)c1)cc(=O)n2C [tipifarnib]
Summary of the method: as §1

[10] = compound: FC(F)(F)c1ccc(/C=C/c2nc(COc3ccc(CCCCn4ccnn4)cc3)co2)cc1 [mubritinib]
Summary of the method: as §1

[11] = compound: NC(=O)Nc1cc(-c2cccc(F)c2)sc1C(=O)N[C@H]1CCCNC1
Summary of the method: as §1

[12] = compound: NC(=O)c1cnc(N[C@@H]2CCCC[C@@H]2N)nc1Nc1cccc(-n2nccn2)c1
Summary of the method: as §1

[13] = compound: NC1(c2ccc(-c3nc4ccn5c(=O)[nH]nc5c4cc3-c3ccccc3)cc2)CCC1
Summary of the method: as §1

[14] = compound: NCC(=O)Nc1ccc(-n2nc(C(F)(F)F)cc2-c2ccc3c(ccc4ccccc43)c2)cc1
Summary of the method: as §1

[15] = compound: Nc1ccccc1NC(=O)c1ccc(CNC(=O)OCc2cccnc2)cc1 [entinostat]
Summary of the method: as §1

[16] = compound: O=C(CCCCCCC(=O)Nc1ccccc1)NO [vorinostat]
Summary of the method: as §1

[17] = compound: O=C(CCCCCCNC(=O)c1cnc(N(c2ccccc2)c2ccccc2Cl)nc1)NO [citarinostat]
Summary of the method: as §1

[18] = compound: O=C(O)c1ccc2c(c1)nc(Nc1cccc(Cl)c1)c1ccncc12 [silmitasertib]
Summary of the method: as §1

[19] = compound: O=C1NC(=O)C(c2cnc3ccccn23)=C1c1cn2c3c(cc(F)cc13)CN(C(=O)N1CCCCC1)CC2
Summary of the method: as §1

[20] = compound: c1cc(OCCN2CCCCC2)cc(-c2n[nH]c3ccc(-c4nnc[nH]4)cc23)c1
Summary of the method: as §1

Target	log2 fold change [1]	log2 fold change [2]	log2 fold change [3]	log2 fold change [4]	log2 fold change [5]	log2 fold change [6]	log2 fold change [7]	log2 fold change [8]	log2 fold change [9]	log2 fold change [10]	log2 fold change [11]	log2 fold change [12]	log2 fold change [13]	log2 fold change [14]	log2 fold change [15]	log2 fold change [16]	log2 fold change [17]	log2 fold change [18]	log2 fold change [19]	log2 fold change [20]
BTBD6 (UniProt Q96KE9)	inactive: -0.007	inactive: 0.011	inactive: 0.277	inactive: -0.044	inactive: 0.008	inactive: -0.098	inactive: 0.239	inactive: -0.003	inactive: -0.121	inactive: 0.153	inactive: 0.054	inactive: 0.102	inactive: 0.469	inactive: 0.199	inactive: -0.039	inactive: 0.081	inactive: 0.273	inactive: -0.352	inactive: -0.011	inactive: 0.118
C4orf33 (UniProt Q8N1A6)	inactive: -0.143	inactive: 0.01	inactive: 0.03	inactive: -0.024	inactive: -0.002	inactive: -0.1	inactive: 0.056	inactive: 0.031	inactive: -0.007	inactive: 0.054	inactive: 0.152	inactive: -0.003	inactive: -0.218	inactive: -0.061	inactive: -0.156	inactive: -0.05	inactive: 0	inactive: -0.126	inactive: 0.019	inactive: -0.063
CALR (UniProt P27797)	inactive: -0.078	inactive: -0.028	inactive: 0.008	inactive: -0.014	inactive: 0.018	inactive: -0.035	inactive: -0.043	inactive: -0.004	inactive: 0.076	inactive: -0.031	inactive: 0.024	inactive: 0.002	inactive: 0.053	inactive: 0.001	inactive: 0.012	inactive: -0.006	inactive: -0.009	inactive: 0.017	inactive: -0.022	inactive: -0.065
C4A (UniProt P0C0L4)	inactive: -0.316	inactive: -0.018	inactive: 0.027	inactive: 0.136	inactive: -0.044	inactive: 0.217	inactive: 0.163	inactive: 0.052	inactive: -0.087	inactive: -0.193	inactive: -0.024	inactive: -0.016	inactive: -0.129	inactive: 0	inactive: 0.021	inactive: 0.265	inactive: -0.071	inactive: 0.059	inactive: 0.038	inactive: 0.146
C5orf51 (UniProt A6NDU8)	inactive: -0.044	inactive: 0.038	inactive: -0.139	inactive: -0.034	inactive: -0.02	inactive: -0.071	inactive: 0.026	inactive: -0.008	inactive: -0.022	inactive: 0.03	inactive: -0.08	inactive: -0.036	inactive: -0.216	inactive: -0.031	inactive: 0.064	inactive: 0.027	inactive: 0.105	inactive: 0.026	inactive: 0.004	inactive: -0.066
C19orf25 (UniProt Q9UFG5)	inactive: -0.068	inactive: -0.128	inactive: -0.018	inactive: -0.009	inactive: 0.071	inactive: -0.004	inactive: 0.128	inactive: 0.172	inactive: 0.073	inactive: 0.012	inactive: -0.1	inactive: 0.017	inactive: 0.052	inactive: -0.127	inactive: 0.014	inactive: -0.219	inactive: 0.01	inactive: -0.034	inactive: 0.073	inactive: 0.138
BZW2 (UniProt Q9Y6E2)	inactive: -0.021	inactive: 0.073	inactive: -0.057	inactive: -0.04	inactive: -0.132	inactive: -0.019	inactive: 0.034	inactive: -0.004	inactive: -0.158	inactive: 0.095	inactive: 0.019	inactive: -0.055	inactive: -0.225	inactive: -0.066	inactive: 0.047	inactive: -0.003	inactive: 0.044	inactive: -0.001	inactive: -0.044	inactive: -0.069
C12orf45 (UniProt Q8N5I9)	inactive: 0.011	inactive: -0.027	inactive: 0.013	inactive: 0.009	inactive: 0.003	inactive: -0.036	inactive: 0.033	inactive: 0.056	inactive: 0.023	inactive: -0.001	inactive: 0.025	inactive: -0.003	inactive: -0.02	inactive: 0.043	inactive: -0.007	inactive: -0.044	inactive: 0.033	inactive: 0.036	inactive: -0.038	inactive: -0.001
CAPZA1 (UniProt P52907)	inactive: -0.013	inactive: -0.013	inactive: 0.014	inactive: 0.009	inactive: -0.024	inactive: 0.005	inactive: 0.07	inactive: -0.028	inactive: -0.047	inactive: -0.007	inactive: -0.006	inactive: -0.006	inactive: -0.025	inactive: 0.006	inactive: -0.005	inactive: 0.015	inactive: 0.012	inactive: -0.004	inactive: -0.026	inactive: -0.015
CA1 (UniProt P00915)	inactive: -0.017	inactive: -0.055	inactive: -0.004	inactive: -0.014	inactive: -0.007	inactive: 0.011	inactive: 0.029	inactive: -0.008	inactive: -0.011	inactive: 0.067	inactive: 0.01	inactive: 0.011	inactive: -0.013	inactive: 0.012	inactive: -0.011	active: 0.221	inactive: 0.074	inactive: 0.013	inactive: -0.014	inactive: -0.029
CAPNS1 (UniProt P04632)	inactive: -0.052	inactive: -0.052	inactive: 0.03	inactive: 0.013	inactive: 0.026	inactive: -0.022	inactive: 0.041	inactive: 0.027	inactive: 0.032	inactive: 0.002	inactive: -0.024	inactive: 0.006	inactive: -0.021	inactive: 0.03	inactive: -0.016	inactive: 0.015	inactive: 0.015	inactive: -0.003	inactive: -0.068	inactive: -0.033
CAP1 (UniProt Q01518)	inactive: 0	inactive: 0.003	inactive: 0.039	inactive: 0.061	inactive: -0.012	inactive: 0.001	inactive: 0.054	inactive: 0.013	inactive: -0.061	inactive: 0.077	inactive: -0.055	inactive: -0.014	inactive: -0.073	inactive: -0.039	inactive: 0.013	inactive: 0.011	inactive: 0.008	inactive: -0.008	inactive: -0.045	inactive: -0.012
C17orf75 (UniProt Q9HAS0)	inactive: -0.005	inactive: 0.009	inactive: -0.125	inactive: -0.073	inactive: -0.015	inactive: -0.045	inactive: 0.003	inactive: -0.02	inactive: -0.015	inactive: 0.096	inactive: 0	inactive: -0.041	inactive: -0.053	inactive: -0.093	inactive: 0.035	inactive: 0.076	inactive: -0.021	inactive: 0.048	inactive: 0.04	inactive: -0.05
C3 (UniProt P01024)	inactive: -0.103	inactive: -0.012	inactive: 0.069	inactive: 0.044	inactive: 0.064	inactive: 0.329	inactive: 0.233	inactive: -0.056	inactive: 0.029	inactive: -0.156	inactive: -0.042	inactive: 0.015	inactive: 0.168	inactive: 0.056	inactive: -0.024	inactive: 0.083	inactive: -0.069	inactive: 0.201	inactive: 0.096	inactive: 0.417
C15orf40 (UniProt Q8WUR7)	inactive: 0.057	inactive: 0.012	inactive: 0.037	inactive: 0.036	inactive: 0.013	inactive: 0.015	inactive: -0.036	inactive: -0.015	inactive: -0.008	inactive: 0.038	inactive: -0.043	inactive: -0.045	inactive: 0.021	inactive: 0.052	inactive: -0.053	inactive: 0.004	inactive: -0.049	inactive: 0.049	inactive: -0.182	inactive: -0.067
C9orf64 (UniProt Q5T6V5)	inactive: 0.031	inactive: 0.218	inactive: -0.045	inactive: -0.094	inactive: -0.197	inactive: -0.04	inactive: 0.079	inactive: 0.085	inactive: -0.163	inactive: 0.282	inactive: 0	inactive: -0.155	inactive: -0.338	inactive: -0.02	inactive: 0.088	inactive: 0.167	inactive: 0.064	inactive: 0.037	inactive: 0.012	inactive: -0.106

Part of the list above, comma-delimited.
Target,log2 fold change [1],log2 fold change [2],log2 fold change [3],log2 fold change [4],log2 fold change [5],log2 fold change [6],log2 fold change [7],log2 fold change [8],log2 fold change [9],log2 fold change [10],log2 fold change [11],log2 fold change [12],log2 fold change [13],log2 fold change [14],log2 fold change [15],log2 fold change [16],log2 fold change [17],log2 fold change [18],log2 fold change [19],log2 fold change [20]
C4orf33 (UniProt Q8N1A6),inactive: -0.143,inactive: 0.01,inactive: 0.03,inactive: -0.024,inactive: -0.002,inactive: -0.1,inactive: 0.056,inactive: 0.031,inactive: -0.007,inactive: 0.054,inactive: 0.152,inactive: -0.003,inactive: -0.218,inactive: -0.061,inactive: -0.156,inactive: -0.05,inactive: 0,inactive: -0.126,inactive: 0.019,inactive: -0.063
C12orf45 (UniProt Q8N5I9),inactive: 0.011,inactive: -0.027,inactive: 0.013,inactive: 0.009,inactive: 0.003,inactive: -0.036,inactive: 0.033,inactive: 0.056,inactive: 0.023,inactive: -0.001,inactive: 0.025,inactive: -0.003,inactive: -0.02,inactive: 0.043,inactive: -0.007,inactive: -0.044,inactive: 0.033,inactive: 0.036,inactive: -0.038,inactive: -0.001

Reference: the supplement of paper PMC10849652
